# Results reported in patent US20220289816A1, “IMMUNOTHERAPY WITH B*07 RESTRICTED PEPTIDES AND COMBINATION OF PEPTIDES AGAINST CANCERS AND RELATED METHODS” (Immatics Biotechnologies GmbH, priority 2018, published 2022).
# Tested on: tumor tissue samples and normal tissue samples (HLA-B*07 positive)
# Test: Identification and quantitation of tumor associated peptides presented on the cell surface (HLA immunoprecipitation, label-free LC-MS)
# Set-up: species or system human
# Conditions: Table 8a; cancer entities on which the peptide was found presented (abbreviations in table head)
row,Substance,Peptide Presentation on cancer entities
1,291 (SPSKSLEM; listed as Homo sapiens) [compound 291],CRC
2,237 (LPRAGGAF; listed as Homo sapiens) [compound 237],"GBC, GC, NSCLCadeno, PACA, RCC"
3,112 (YPSPLNKHSF; listed as Homo sapiens) [compound 112],RCC
4,143 (YPMIPPAQL; listed as Homo sapiens) [compound 143],SCLC
5,120 (TVRPKNAAL; listed as Homo sapiens) [compound 120],"AML, HCC, OSCAR, UEC"
6,57 (APLLPIRTL; listed as Homo sapiens) [compound 57],UBC
7,272 (SSPRGTTSTL; listed as Homo sapiens) [compound 272],"GBC, OSCAR"
8,319 (RPLDTFRVL; listed as Homo sapiens) [compound 319],OSCAR
9,190 (RLAHVRARL; listed as Homo sapiens) [compound 190],UEC
10,85 (MPMQDIKMILKM; listed as Homo sapiens) [compound 85],"OC, SCLC"
11,123 (RPRLRDLPAL; listed as Homo sapiens) [compound 123],"CLL, GBC, NHL, OC, OSCAR, RCC"
12,280 (LPRAFLQSL; listed as Homo sapiens) [compound 280],"CRC, NHL, NSCLCsquam"
13,45 (TRPWSGPYIL; listed as Homo sapiens) [compound 45],MEL
14,356 (RPFLRLPSL; listed as Homo sapiens) [compound 356],"CRC, HCC, HNSCC, OC, OSCAR"
15,268 (EPLSVTASY; listed as Homo sapiens) [compound 268],HNSCC
16,246 (RPILKEQSSSSF; listed as Homo sapiens) [compound 246],"GBC, HNSCC, NSCLCsquam, OSCAR"
17,335 (VPPQNPRPSL; listed as Homo sapiens) [compound 335],"AML, GBM, HNSCC, NHL, NSCLCadeno, OSCAR"
18,114 (FVPPSGPSNPM; listed as Homo sapiens) [compound 114],HNSCC
19,59 (KPRTIYSSL; listed as Homo sapiens) [compound 59],"OSCAR, UEC"
20,134 (VAAAARLTL; listed as Homo sapiens) [compound 134],MEL
21,204 (FPYSGDKILV; listed as Homo sapiens) [compound 204],"SCLC, UBC, UEC"
22,25 (RPQGAVGGL; listed as Homo sapiens) [compound 25],HCC

row,Substance,Peptide Presentation on cancer entities
1,219 (VPHTGRYTCL; listed as Homo sapiens) [compound 219],RCC
2,299 (SPFSGGPVSF; listed as Homo sapiens) [compound 299],RCC
3,293 (FPYDKPLIM; listed as Homo sapiens) [compound 293],"GC, NSCLCadeno"
4,22 (LPQLKPAL; listed as Homo sapiens) [compound 22],"HNSCC, OSCAR"
5,311 (APRLALDPDAL; listed as Homo sapiens) [compound 311],"BRCA, SCLC"
6,289 (LPYEKVSRL; listed as Homo sapiens) [compound 289],"CCC, NHL"
7,260 (LVQSSRSEV; listed as Homo sapiens) [compound 260],"HNSCC, OSCAR"
8,349 (QPRDGWPMML; listed as Homo sapiens) [compound 349],"HNSCC, OSCAR"
9,136 (QPDHAGIFRVF; listed as Homo sapiens) [compound 136],"HNSCC, OSCAR"
10,221 (LPQRPNARL; listed as Homo sapiens) [compound 221],"CCC, CRC, GBC, GC, HCC, HNSCC, MEL, NSCLCadeno, NSCLCsquam, OC, OSCAR, PACA, PRCA, RCC, SCLC, UBC, UEC"
11,379 (GPRQVLFPL; listed as Homo sapiens) [compound 379],"AML, BRCA, CCC, CRC, GBC, GBM, GC, HCC, HNSCC, MEL, NHL, NSCLCadeno, NSCLCsquam, OC, OSCAR, PACA, PRCA, RCC, SCLC, UBC, UEC"
12,140 (TPFPDIHWF; listed as Homo sapiens) [compound 140],"NSCLCsquam, RCC, SCLC"
13,20 (MVLGIGPVL; listed as Homo sapiens) [compound 20],"CRC, GBC, HNSCC, NSCLCadeno,NSCLCsquam, OC, SCLC, UEC"
14,263 (SQRPPATSQA; listed as Homo sapiens) [compound 263],"AML, BRCA, CCC, CLL, CRC, GBM, HCC, HNSCC, NHL, OC, OSCAR, PACA, PRCA, RCC"
15,223 (KAHVRIEL; listed as Homo sapiens) [compound 223],CRC
16,2 (VPGSDPARYEFL; listed as Homo sapiens) [compound 2],OSCAR
17,351 (SPYADIIPSA; listed as Homo sapiens) [compound 351],HNSCC
18,343 (RPRPPKVLGL; listed as Homo sapiens) [compound 343],"AML, CCC, HCC, MEL, NSCLCadeno, NSCLCsquam, OC, OSCAR, RCC, SCLC, UEC"
19,155 (APIPRLIEG; listed as Homo sapiens) [compound 155],OSCAR
20,234 (HPRAPGEQQRL; listed as Homo sapiens) [compound 234],"BRCA, CRC, UEC"
21,373 (LPKPDLPQLI; listed as Homo sapiens) [compound 373],"AML, BRCA, HCC, MEL, NSCLCadeno, PRCA, RCC, UEC"
22,161 (ASKILETSL; listed as Homo sapiens) [compound 161],MEL

row,Substance,Peptide Presentation on cancer entities
1,358 (APSMLRKNQL; listed as Homo sapiens) [compound 358],HCC
2,172 (SAQSLHPVL; listed as Homo sapiens) [compound 172],GBM
3,203 (KPRGPIDI; listed as Homo sapiens) [compound 203],"CRC, GBC, NSCLCadeno"
4,307 (RPHQKGWLSI; listed as Homo sapiens) [compound 307],HCC
5,232 (TAYPSLRLL; listed as Homo sapiens) [compound 232],"BRCA, HCC, MEL, NHL, NSCLCadeno, NSCLCsquam, PACA, SCLC, UEC"
6,163 (FRYPNGVSL; listed as Homo sapiens) [compound 163],HCC
7,250 (APAAPAAVPS; listed as Homo sapiens) [compound 250],"CRC, GBM, OC"
8,71 (APFAPLHGGGSL; listed as Homo sapiens) [compound 71],PRCA
9,188 (HAAASFETL; listed as Homo sapiens) [compound 188],NSCLCadeno
10,23 (VPRPTSTVGL; listed as Homo sapiens) [compound 23],MEL
11,69 (RPEDGRPRL; listed as Homo sapiens) [compound 69],GBM
12,170 (APEGKRLGF; listed as Homo sapiens) [compound 170],MEL
13,74 (VPVSHPVL; listed as Homo sapiens) [compound 74],"CLL, NHL"
14,278 (LIAARGSLVL; listed as Homo sapiens) [compound 278],"AML, CRC, MEL, NSCLCadeno, OSCAR, SCLC, UEC"
15,72 (APCNGNVAV; listed as Homo sapiens) [compound 72],"BRCA, NSCLCadeno"
16,78 (HPSQESPTL; listed as Homo sapiens) [compound 78],"NSCLCsquam, OC, RCC, UBC, UEC"
17,159 (TPMTVPRI; listed as Homo sapiens) [compound 159],"CLL, NHL"
18,63 (FPHMATTAF; listed as Homo sapiens) [compound 63],HNSCC
19,65 (FPNVYSTLVL; listed as Homo sapiens) [compound 65],MEL
20,148 (KPHLIYRQ; listed as Homo sapiens) [compound 148],"AML, BRCA, CRC, HCC, HNSCC, MEL, NSCLCadeno, OSCAR, RCC, SCLC, UEC"
21,366 (SPTLRQLDL; listed as Homo sapiens) [compound 366],"CCC, HCC"

# Same assay, conditions: Table 8b; cancer entities on which the peptide was found presented (abbreviations in table head)
row,Substance,Peptide Presentation on cancer entities
1,457 (RPPLSQRHTF; listed as Homo sapiens) [compound 457],NHL
2,467 (VPRNQDWLGVSRQL; listed as Homo sapiens) [compound 467],MEL
3,493 (LPLQQYKLV; listed as Homo sapiens) [compound 493],HCC
4,485 (LPLKTKVFA; listed as Homo sapiens) [compound 485],NSCLCsquam
5,469 (LPLDTRTSI; listed as Homo sapiens) [compound 469],CLL
6,495 (SPSYTQASL; listed as Homo sapiens) [compound 495],BRCA
7,496 (MPAVSGPGPLF; listed as Homo sapiens) [compound 496],NSCLCadeno
8,476 (EPNPVEEIF; listed as Homo sapiens) [compound 476],NSCLCsquam
9,484 (LPASAEPKGTM; listed as Homo sapiens) [compound 484],HNSCC
10,454 (SPDPAHLESL; listed as Homo sapiens) [compound 454],NSCLCother
11,472 (LPMPAITWY; listed as Homo sapiens) [compound 472],MEL
